In PubChem BioAssay AID2685 (National Center for Advancing Translational Sciences (NCATS), 2010) one finds cell number change and AC50 data, which are given here for 39 compounds.

This assay is described as follows: qHTS Assay for Lipid Storage Modulators in Drosophila S3 Cells.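 On cell number change: cells counted by Cell Tracker Red CMTPX staining in the red channel.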 The note with it: BODIPY lipid droplet fluorescence, 18-24 h; for cell number change: measured here: cell count max response, cells fed with added oleic acid. In short, it runs like this:
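Drosophila S3 cells got compounds at several concentrations plus oleic acid (400 uM solution). Laser-scanning cytometry with 488 nm excitation read lipid droplets at 500-530 nm and cells at 575-640 nm. Percent activity was relative to 20 uM Triacsin C.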
(In qHTS, concentration-response curves come from the screen itself.)

The mark [1] stands for this setting: measured here: lipid fluorescence (Fed channel) AC50, cells fed with added oleic acid.
The mark [2] stands for this setting: measured here: cell number channel AC50, cells fed with added oleic acid.

This is one part of the list. The main result of the screen is listed elsewhere. These columns were measured beside it and carry no call. The list favours compounds with an active or inconclusive main result. The note in brackets gives the kind of curve behind each potency; many fits are weak.

As a reminder, the AC50 is the concentration at which the activity in the assay is half-maximal. High values mean activity only at high concentration, low ones activity at low concentration. For the compound `COc1ccc(S(=O)(=O)N2CCN(Cc3cccnc3)CC2)cc1`, the cell number change worked out at 15.5%. In addition, under setting [1], the AC50 is 29.1 µM [rising, single point].

Take `Cc1ccc(N(CC(=O)NCc2ccco2)C(=O)CCC(=O)Nc2nccs2)c(C)c1`: the cell number change was -31.7%. Also, the concentration at half-maximal activity (AC50) under setting [2] is 9.2 µM [falling, partial curve].

Consider `Cc1cc(Nc2ccc3c(c2)OCCO3)n2nc(C)nc2n1`, for which the cell number change was 1.22%.

For `N#Cc1c(-c2ccccc2)c(-c2ccccc2)n[nH]c1=O`, the cell number change was -48.2%. In addition, the half-maximal activity concentration (AC50) under setting [2] is 23.1 µM [falling, single point]. Also, under setting [1], the AC50 is 29.1 µM [falling, single point].

As for `CCCC(=O)Nc1ccc(Cl)c(NC(=O)c2cccc(OC)c2)c1`, the cell number change was 6.33%. Also, the AC50 under setting [2] is 1.84 µM [rising, partial curve].

For the compound `CC(=O)N1CCN(C(=O)CCN(c2ccccc2)S(=O)(=O)c2ccc(C)cc2)CC1`, the cell number change turned out to be 12.5%. For the same compound, the concentration at half-maximal activity (AC50) under setting [1] was 0.13 µM [rising, full curve, poor fit].

For `COc1ccc(CN=C(C)c2c(C(F)(F)F)[nH]n(-c3nc4ccccc4s3)c2=O)cc1`, the cell number change was 17.3%. Further, the half-maximal activity concentration (AC50) under setting [2] is 0.517 µM [rising, full curve]. Moreover, under setting [1], the AC50 was 0.92 µM [rising, partial curve].

With `Cc1cccc(NC(=O)c2cc(-c3ccc(C)s3)nc3ccccc23)n1`, the cell number change is 43.9%. Further, the AC50 under setting [2] was 11.6 µM [rising, partial curve]. In addition, the concentration at half-maximal activity (AC50) under setting [1] was 13 µM [rising, partial curve].

For the compound `Cc1ccnc(NC(=O)C2CC(=O)N(c3ccc4c(c3)OCCO4)C2)c1` (stereo unspecified), the cell number change is 21.1%. Further, under setting [1], the concentration at half-maximal activity (AC50) is 29.1 µM [rising, partial curve, poor fit].

As for `Cc1c(C)n(CC(O)CNCCO)c2ccccc12` (stereo unspecified), under setting [1], the AC50 was 0.116 µM [rising, full curve, poor fit].

For the compound `CCOC(=O)c1cnn(-c2nc(SC)nc3sc4c(c23)CCCC4)c1N`, the cell number change is 41.7%. For the same compound, the AC50 under setting [2] is 1.84 µM [rising, full curve]. In addition, under setting [1], the AC50 is 5.17 µM [rising, partial curve].

Turning to `CC1CCN(S(=O)(=O)c2ccc3c(c2)C(=NO)c2cc(S(=O)(=O)N4CCC(C)CC4)ccc2-3)CC1`, the cell number change was -55.1%. In addition, the AC50 under setting [2] was 4.11 µM [falling, partial curve]. The half-maximal activity concentration (AC50) under setting [1] was 2.31 µM [falling, full curve].

For the compound `CC(=O)NC1(NC(C)=O)CCN(C)C(c2ccccc2)C1C` (stereo unspecified), the cell number change was -76.1%. Moreover, the AC50 under setting [2] is 0.411 µM [falling, full curve]. Further, the concentration at half-maximal activity (AC50) under setting [1] is 29.1 µM [falling, single point].

Take `COc1ccccc1OC(=O)c1ccc(SC)cc1OC`: the cell number change worked out at 28.3%. Further, the half-maximal activity concentration (AC50) under setting [1] is 29.1 µM [rising, single point].

As to `Cc1cccc(OCCOC(=O)C2CCN(S(=O)(=O)c3ccc(C)c(C)c3)CC2)c1`, the cell number change was determined as 25.5%. Under setting [1], the concentration at half-maximal activity (AC50) was 11.2 µM [rising, partial curve].

As to `NS(=O)(=O)c1ccc(N/N=C2/CCCc3ccccc32)c([N+](=O)[O-])c1`, the cell number change is -14.7%. Moreover, the AC50 under setting [1] is 0.112 µM [falling, full curve, poor fit].

With `COc1ccc(C(=O)COC(=O)CN2C(=O)C3C4CCC(C4)C3C2=O)cc1` (stereo unspecified), the AC50 under setting [1] was 4.11 µM [falling, partial curve, poor fit].

As to `C/C=C(\C)CN1CCC(n2nccc2NC(=O)CCc2ccccc2)CC1`, the cell number change was determined as 6.8%.

With `Cc1[nH]c2ccccc2c1/C=N/Nc1ccc(F)cc1F`, the cell number change was -14.9%. Besides, under setting [1], the concentration at half-maximal activity (AC50) was 16.4 µM [falling, single point].

For the compound `O=C(NCc1ccco1)c1cc(NS(=O)(=O)c2cccc([N+](=O)[O-])c2)ccc1O`, the cell number change is 46.7%.

`CC(Sc1nnc(-c2ccc(Cl)cc2)n1C)C(N)=O` (stereo unspecified): the cell number change worked out at 6.51%.

On to `NC(=O)C1CCN(S(=O)(=O)c2ccccc2[N+](=O)[O-])CC1`, for which the cell number change is 6.82%. Under setting [1], the half-maximal activity concentration (AC50) is 29.1 µM [rising, single point].

Turning to `Nn1c(SCC(=O)Nc2cccnc2Cl)nnc1-c1ccccc1`, the cell number change came to 15.6%.

For the compound `CCN(CC)CC#CCC(OC)(c1ccccc1)c1ccccc1`, the cell number change was -65.5%. In addition, the concentration at half-maximal activity (AC50) under setting [2] is 18.4 µM [falling, single point]. Further, the AC50 under setting [1] is 16.4 µM [falling, single point].

Turning to `O=C(Nc1ccc(N2CCN(C(=O)c3cccs3)CC2)c(Cl)c1)c1cccnc1`, the cell number change worked out at 21.6%. The AC50 under setting [2] was 2.91 µM [rising, single point].

`COc1cccc(NC(=O)c2oc3ccccc3c2NC(=O)c2ccc3c(c2)OCO3)c1`: the cell number change was -3.7%. Under setting [1], the half-maximal activity concentration (AC50) is 7.31 µM [falling, partial curve, poor fit].

As for `CCOCCCNC(=O)C1c2ccccc2Oc2ccccc21`, the cell number change came to 8.13%.

`O=C(OCc1csc(-c2ccccc2)n1)c1cccs1`: the cell number change amounted to 0.917%. Besides, the AC50 under setting [1] was 0.0326 µM [falling, full curve].

For the compound `N#CCCOC1(C#CCN2CCCC2)CCCCC1`, the concentration at half-maximal activity (AC50) under setting [2] was 0.82 µM [rising, full curve, poor fit].

For `Cc1[nH]n(-c2ccccc2)c(=S)c1C=Nc1cccc([N+](=O)[O-])c1`, the cell number change was -21.6%.

As for `CCn1cc(/C=C(\NC(=O)c2ccccc2F)C(=O)NCCCn2ccnc2)c2ccccc21`, the half-maximal activity concentration (AC50) under setting [2] is 1.84 µM [falling, single point].

For `Cc1cccc(NC(=O)c2c(-c3ccccc3)noc2C)n1`, the cell number change came to 47.4%.

Turning to `CC(C)OC(=O)c1cn(-c2ccccc2)nc1-c1ccco1`, the concentration at half-maximal activity (AC50) under setting [2] was 2.31 µM [rising, partial curve].

On to `CCCCN(C(=O)NC(=O)Nc1c(C)cc(C)cc1C)S(C)(=O)=O`, for which the cell number change amounted to 22.9%. Also, under setting [1], the concentration at half-maximal activity (AC50) is 5.8 µM [rising, single point].

On to `Cc1ccc(-c2cc(C(=O)Nc3cc(C)on3)c3ccccc3n2)cc1`, for which the cell number change was -48.6%. In addition, the concentration at half-maximal activity (AC50) under setting [2] is 16.4 µM [falling, partial curve].

Take `C[C@H](NC(=O)c1nc[nH]c1C(=O)N[C@@H](Cc1ccccc1)C(=O)OC(C)(C)C)C(=O)OCc1ccccc1`: the AC50 under setting [1] was 18.4 µM [falling, single point].

As to `COc1ccc(/C=C(\C#N)C(=O)Nc2cc(S(=O)(=O)N3CCCCC3)ccc2N2CCCCC2)cc1`, the cell number change turned out to be 31.6%. In addition, the AC50 under setting [2] was 23.1 µM [rising, single point]. The concentration at half-maximal activity (AC50) under setting [1] was 6.51 µM [rising, single point].

Consider `Cc1ccc(OCCC(=O)OCC(=O)Nc2ccccc2)cc1`, for which the cell number change was -17.6%. Besides, the AC50 under setting [1] was 29.1 µM [falling, single point].

Take `O=C(c1ccc(NC(=O)C(c2ccccc2)c2ccccc2)cc1)c1ccc(C(=O)O)c(C(=O)O)c1`: the cell number change is -22.1%.
